# From patent publication US20090149482A1, “STEREOCHEMICALLY DEFINED DIPEPTIDE ESTERS OF ANTIVIRAL AGENTS FOR ENHANCED OCULAR TREATMENT” (priority 2001, published 2009)
# For at least one compound, name, drawing or mass did not settle the structure.
# Biological target: T1, hPEPT1 (Homo sapiens, UniProt P46059)
# T1 construct: endogenous in cells; host or cells: Caco-2 (human colon carcinoma, ATCC)
# T1 sequence (P46059 1-708): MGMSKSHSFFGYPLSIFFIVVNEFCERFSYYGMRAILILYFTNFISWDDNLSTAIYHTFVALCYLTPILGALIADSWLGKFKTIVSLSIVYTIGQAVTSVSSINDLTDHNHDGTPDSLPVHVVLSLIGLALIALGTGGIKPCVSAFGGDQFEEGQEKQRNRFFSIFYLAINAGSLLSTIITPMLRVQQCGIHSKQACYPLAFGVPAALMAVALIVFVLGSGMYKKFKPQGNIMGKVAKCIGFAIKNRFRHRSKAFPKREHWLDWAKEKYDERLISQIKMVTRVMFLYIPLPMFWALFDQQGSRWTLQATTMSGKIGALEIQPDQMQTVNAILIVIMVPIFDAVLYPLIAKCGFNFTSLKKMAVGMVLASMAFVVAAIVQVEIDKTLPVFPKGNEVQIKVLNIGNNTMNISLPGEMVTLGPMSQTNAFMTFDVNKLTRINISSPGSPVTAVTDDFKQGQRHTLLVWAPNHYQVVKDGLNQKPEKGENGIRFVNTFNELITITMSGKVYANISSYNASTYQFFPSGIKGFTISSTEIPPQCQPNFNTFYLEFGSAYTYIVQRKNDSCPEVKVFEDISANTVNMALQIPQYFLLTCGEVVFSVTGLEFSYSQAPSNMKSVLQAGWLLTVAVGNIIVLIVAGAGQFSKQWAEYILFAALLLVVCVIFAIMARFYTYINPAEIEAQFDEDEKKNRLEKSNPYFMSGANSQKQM
# Assay: [3H] Glycylsarcosine uptake and its inhibition in Caco-2 cells (affinity towards peptide transporter)
# Format: cell-based
# Conditions: read-out: Km of Gly-Sar uptake in presence of the drug
# Text: Materials: [^3H] Glycylsarcosine (Gly-Sar; 4 Ci/mmol) was purchased from Moravek Biochemicals (Brea, Calif.) and [^14C] Mannitol (50 mCi/mmol) was supplied by Amersham (Piscataway, N.J.). Human colon carcinoma derived Caco-2 cells were obtained from American Type Culture Collection (ATCC, Rockville, Md.). The growth medium, Dulbecco's modified Eagle Medium was obtained from Life Technologies (Grand Island, N.Y.). […] Fetal bovine serum (FBS) was purchased from JRH Biosciences (Lenexa, Kans.). Culture flasks (75 cm^2 growth area), polyester Transwells® (pore size 0.4 Cm with diameter 6.5 mm) and polyester membranes (pore size 0.4 Cm) were procured from Costar (Bedford, Mass.). The buffer components and solvents were obtained from Fisher Scientific (St. Louis, Mo.). All the di-peptide esters of acyclovir were custom synthesized in our laboratory. […] Cell Culture: All cultures were maintained in humidified incubator at 37° C. with a 5% carbon dioxide in air atmosphere. […] The protein content of the cell suspension was determined by the method of Bradford using bovine serum albumin as the standard (BioRad protein estimation kit, Hercules, Calif.). […] The samples were stored at −80° C. until analyzed HPLC. […] The amount of protein in the cell lysate was measured by the BioRad protein estimation kit using bovine serum albumin as standard (BioRad Protein estimation Kit, Hercules, Calif.). […]
compound,measurement,value
"CC(C)C(N)C(=O)NC(C(=O)OCCOCn1cnc2c(=O)[nH]c(N)nc21)C(C)C (stereo not drawn) [Val-Val-ACV, Val-Valacyclovir]",Km,12.8 ± 0.36 mM
